Reference: PubChem BioAssay AID504834 (National Center for Advancing Translational Sciences (NCATS), 2011)
Hit rate of the full screen: of about 320,000 compounds, about 22,000 (6.9%) were called active. Inconclusive means that the source gave no clear call. Such entries were picked first, then a sample of the others. Calls come from the whole dose curve; as a rule, active = well fitted inhibition curve with a large enough effect; inconclusive = small, poorly fitted or top-dose-only effect, or another doubt; inactive = no such curve, though single readings can be large or run the other way. Potencies beside an inconclusive call are fits to weak or partial responses and may not hold up.
% is set by controls: 0 for no effect and ±100 for the full control effect; potency is the fitted concentration of half-maximal effect.

Assay: Primary qHTS for delayed death inhibitors of the malarial parasite plastid, 96 hour incubation
Details: P. falciparum luciferase reporter growth; series mostly up to 28.7 µM
Summary of the method: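 Two-generation exposure (96 h) targets delayed-death phenotype. Reporter parasites carrying integrated firefly luciferase, in red cells at 2% hematocrit and 0.05% parasitemia final, kept at 37 C, 5% CO2; luminescence loss indicates inhibition.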
In the case of `CN1CCN(c2nc(-c3ccc(Cl)cc3)cc(=O)[nH]2)CC1`, the Potency is reported as inconclusive: 13.1 µM [inhibitor, partial curve]. With `Cc1cccc(-n2cc(-c3ccccc3)c3c(N4CCOCC4)ncnc32)c1` the Potency was inconclusive: 2.94 µM [inhibitor, single point]. For `CCN(C(=O)COC(=O)c1cn(C)c2ccccc12)c1ccc(F)cc1`, the Potency was inconclusive: 13.1 µM [inhibitor, single point]. For `CSc1nnc(-c2ccc(S(=O)(=O)N3CCOCC3)cc2)n1CC1CCCO1` (stereo not drawn), the Potency was inconclusive: 1.04 µM [inhibitor, partial curve, poor fit]. For `COc1ccccc1/C=C/C=N/NC(=O)c1cccs1`, the Potency was “inactive”. For `CCOc1ccc(NC(=O)CSc2nc3ccccc3c(=O)n2CCCC(=O)N2CCCC2)cc1`, the Potency was inconclusive: 7.38 µM [inhibitor, partial curve, poor fit]. For `Cc1ccc(C)c(CN2CCC(CNC(=O)Nc3ccc(Cl)cc3)CC2)c1`, the Potency was inconclusive: 0.208 µM [inhibitor, full curve]. With `COc1ccc(NC(=O)Nc2ccc(C(=O)N3CCOCC3)cc2)cc1` the Potency was inconclusive: 0.37 µM [inhibitor, full curve, poor fit]. In the case of `Cc1cccc(C(=O)O/N=C(\N)c2ccc(Cl)cc2)c1`, the Potency is reported as “inactive”. In the case of `O=S(=O)(c1ccccc1)c1nc(-c2ccco2)oc1NCc1ccccc1`, the Potency is reported as active: 8.28 µM. In the case of `COc1cc(C(=O)Nc2ccc3c(c2)ncn3C(C)(C)C)cc(OC)c1OC`, the Potency is reported as inconclusive: 18.5 µM [inhibitor, single point]. With `CCN(CC)S(=O)(=O)c1ccc(N2CCCC2)c(NC(=O)c2ccc(OC)cc2OC)c1` the Potency was inconclusive: 18.5 µM [inhibitor, partial curve, poor fit]. For `COc1ccc(NC(=O)CCOc2ccccc2)c(OC)c1`, the Potency was inconclusive: 1.31 µM [inhibitor, partial curve, poor fit]. With `O=C(O)c1ccc(S(=O)(=O)N[C@H](Cc2ccc(O)cc2)C(=O)O)cc1` the Potency was “inactive”. With `COc1ccc(S(=O)(=O)Nc2ccccc2OC)cc1NC(=O)Cc1cccs1` the Potency was “inactive”. For `C=CCN1C(=O)C(O)(CC(=O)c2ccc(Cl)cc2)c2ccccc21` (stereo not drawn), the Potency was active: 14.7 µM. In the case of `Cc1ccccc1NC(=O)CNC(=O)c1ccc(C(F)(F)F)cc1`, the Potency is reported as “inactive”. With `COc1nccnc1NS(=O)(=O)c1ccc(N/C=C2\CCCCC2=O)cc1` the Potency was inconclusive: 5.22 µM [inhibitor, partial curve, poor fit]. With `Cc1ccc2[nH]nc(C(=O)N3CCCC(C(=O)c4ccc(Cl)cc4)C3)c2c1` (stereo not drawn) the activity change, negative = inhibition was inactive: 65.6% [at 5.75 µM]. In the case of `O=C(Nc1nc(=O)c2ccccc2s1)c1ccc(F)cc1`, the Potency is reported as inconclusive: 10.4 µM [inhibitor, single point]. For `Cc1cccc(NC(=O)CN(CC2CCCO2)C(=O)c2oc3ccc(F)cc3c2C)c1C` (stereo not drawn), the Potency was inconclusive: 11.7 µM [inhibitor, single point]. For `CCCCN(C(=S)Nc1ccccc1)C1CCS(=O)(=O)C1` (stereo not drawn), the Potency was inconclusive: 0.0047 µM [inhibitor, full curve, poor fit]. For `Cc1cc(N2CCCN(C)CC2)nc2cc(Cl)ccc12`, the Potency was inconclusive: 18.5 µM [inhibitor, single point]. In the case of `c1ccc(C(c2ccccc2)c2nc(-c3cccnc3)no2)cc1`, the Potency is reported as inconclusive: 18.5 µM [inhibitor, single point]. With `CCCCn1c(SCC(=O)N2CCC(C(=O)OCC)CC2)nc2cc(S(N)(=O)=O)ccc21` the Potency was active: 13.1 µM. For `COc1cccc(CN2CCN(Cc3c(C)nn(C(C)C)c3C)CC2CCO)c1` (stereo not drawn), the Potency was active: 10.4 µM. For `Cc1ccc(-c2csc3ncnc(-n4cnc5ccccc54)c23)cc1`, the Potency was inconclusive: 13.1 µM [inhibitor, single point]. For `O=C1c2ccccc2C(=O)N1OCCOCCOCCON1C(=O)c2ccccc2C1=O`, the Potency was inconclusive: 10.4 µM [inhibitor, partial curve, poor fit]. In the case of `CN1CCN(C(=O)C23CC4CC(C)(CC(C)(C4)C2)C3)CC1`, the Potency is reported as inconclusive: 0.329 µM [inhibitor, full curve, poor fit]. With `Cc1ccc(C(=O)Nc2ccc(C(=O)N/N=C/c3cccnc3)cc2)cc1` the Potency was inconclusive: 2.62 µM [inhibitor, full curve, poor fit]. With `COc1ccc(NC(=O)CSc2nn3c(=O)c(C)nnc3s2)cc1` the Potency was active: 11.7 µM. With `O=[N+]([O-])c1ccc(CSc2ccc(S(=O)(=O)N3CCCCCC3)cn2)cc1` the Potency was inconclusive: 13.1 µM [inhibitor, partial curve, poor fit]. For `CCN1/C(=C/C(C)=C/c2sc3ccccc3[n+]2CC)Sc2ccccc21`, the Potency was inconclusive: 0.522 µM [inhibitor, full curve, poor fit]. For `CC(=O)Nc1cccc(C(=O)OCC(=O)NC(=O)c2ccccc2)c1`, the Potency was “inactive”. In the case of `O=C(CSc1nnc(-c2ccncc2)o1)c1ccc2c(c1)OCCO2`, the Potency is reported as “inactive”. In the case of `NC1CCN(c2nc3c(cc2F)c(=O)c(C(=O)O)cn3-c2ccc(F)cc2F)C1` (stereo not drawn), the Potency is reported as active: 1.07 µM. With `COc1ccc(CCNC(=O)CSc2nnnn2-c2ccc(OC)c(OC)c2)cc1OC` the Potency was inconclusive: 0.522 µM [inhibitor, full curve, poor fit]. For `CCOC(=O)c1c(C)n(C)c2ccc(O)c(CN3CCC(C)CC3)c12`, the Potency was active: 10.4 µM. With `CCn1c(=O)c2ccccc2n(Cc2cccc([N+](=O)[O-])c2)c1=O` the Potency was “inactive”. For `COc1cc(S(=O)(=O)NCc2ccccn2)c(OC)cc1Cl`, the Potency was active: 9.28 µM. In the case of `Cc1cccc(OP(=O)(Nc2ccc(F)cc2)Oc2cccc(C)c2)c1`, the Potency is reported as inconclusive: 14.7 µM [inhibitor, partial curve, poor fit]. In the case of `CC(=O)N1CCN(c2ccc(NC(=O)c3cccc(Cl)c3Cl)cc2)CC1`, the Potency is reported as “inactive”. For `O=C1NC(=S)N/C1=C/c1cc2c(cc1[N+](=O)[O-])OCO2`, the Potency was “inactive”. In the case of `CCc1c(C)c(C#N)c2nc3ccccc3n2c1N1CCN(c2cc(C)ccn2)CC1`, the Potency is reported as inconclusive: 0.928 µM [inhibitor, full curve, poor fit]. For `COc1cc(NC(=O)Nc2c(C)n(C)n(-c3ccccc3)c2=O)cc(OC)c1OC`, the Potency was inconclusive: 18.5 µM [inhibitor, single point]. In the case of `CCCOc1ccc(CNC(=S)NCc2ccc(OC(C)C)cc2)cc1`, the Potency is reported as inconclusive: 11.7 µM [inhibitor, single point]. With `O=c1[nH]c(=O)n(-c2ccc(F)cc2)c2c1C(C(F)(F)F)(C(F)(F)F)N=C(c1ccc(F)cc1)N2` the Potency was active: 11.7 µM. For `COc1cccc(CN2CCN(C(=O)CCc3nnc(C4CCCCC4)o3)CC2=O)c1`, the Potency was inconclusive: 14.7 µM [inhibitor, partial curve]. In the case of `COc1ccc(C(=O)CSc2ccc(-c3ccc(C)cc3)nn2)cc1`, the Potency is reported as inconclusive: 13.1 µM [inhibitor, single point]. For `O=C(CSc1ncn[nH]1)NC1CCCc2ccccc21` (stereo not drawn), the Potency was inconclusive: 10.4 µM [inhibitor, single point]. For `COc1ccc(CNC(=O)C2CCCN(S(=O)(=O)c3cccc4nsnc34)C2)cc1` (stereo not drawn), the Potency was inconclusive: 14.7 µM [inhibitor, single point]. In the case of `c1ccc2cc(CSCc3nc4ccccc4[nH]3)ccc2c1`, the Potency is reported as inconclusive: 10.4 µM [inhibitor, single point]. In the case of `CCN(CC)S(=O)(=O)c1ccc(C)c(NC(=O)COc2ccc(Cl)cc2Br)c1`, the Potency is reported as inconclusive: 9.28 µM [inhibitor, single point]. With `Cc1cccc(NS(=O)(=O)c2ccc(NC(=O)N3CCCCC3)cc2)c1` the Potency was “inactive”. For `COc1ccccc1/C=N/NC(=O)c1ccc(Br)cc1`, the Potency was “inactive”. In the case of `Cc1ccc(S(=O)(=O)NC(C(=O)N2CCOCCOCCOCCOCC2)C(C)C)cc1` (stereo not drawn), the Potency is reported as “inactive”. In the case of `C=CCn1c(NCc2ccc(OC)cc2O)nc2ccccc21`, the Potency is reported as active: 2.94 µM. In the case of `COc1ccc(CN(CC2CCCO2)C(=O)CN2C(=O)C(C)Oc3ccc(C)cc32)cc1OC` (stereo not drawn), the Potency is reported as inconclusive: 18.5 µM [inhibitor, single point]. With `O=C(NCC(c1ccco1)N1CCN(c2ccccc2F)CC1)C(=O)NC1CCCC1` (stereo not drawn) the Potency was inconclusive: 18.5 µM [inhibitor, single point]. In the case of `CCN(CC)CCCNC(=O)Cc1c(C(=O)O)n(C)c2ccccc12`, the Potency is reported as inconclusive: 11.7 µM [inhibitor, single point]. In the case of `Cc1ccc(-c2csc3ncnc(N4CCN(C(=O)c5ccco5)CC4)c23)cc1`, the Potency is reported as inconclusive: 10.4 µM [inhibitor, single point]. With `COc1cc(CCC(=O)OCC(=O)N(CC(C)C)C2CCS(=O)(=O)C2)cc(OC)c1OC` (stereo not drawn) the Potency was “inactive”. In the case of `COC(=O)C1=C(C)Nc2ncnn2C1c1ccc(OC(=O)c2ccccc2)cc1` (stereo not drawn), the Potency is reported as inconclusive: 0.657 µM [inhibitor, full curve, poor fit]. In the case of `Cc1ccc2nc(/C(C#N)=C/c3ccc(-c4cccc([N+](=O)[O-])c4)o3)[nH]c2c1`, the Potency is reported as inconclusive: 14.7 µM [inhibitor, single point]. In the case of `O=C(c1ccco1)N1CCN(C(=O)c2cnn3c2NC(c2cccs2)CC3C(F)(F)F)CC1` (stereo not drawn), the Potency is reported as “inactive”. With `COCC(=O)Nc1c(C(=O)N2CCCC2)oc2ccccc12` the Potency was “inactive”. For `CC(C)[C@H](NC(=O)N1CC(=O)Nc2ccccc21)C(=O)N[C@H](Cc1c[nH]c2ccccc12)C(=O)O`, the Potency was inconclusive: 10.4 µM [inhibitor, single point]. For `O=C(O)c1cccc(CSc2n[nH]c(-c3ccc(Cl)cc3Cl)n2)c1`, the Potency was inconclusive: 3.29 µM [inhibitor, single point].
